Values are the deposited “Percent Effect”, in %. How 0% and 100% were set is not recorded. Most values in the screen are low, and negative values occur. This is an unselected part of the compounds tested.

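Whole-cell assay for inhibitors of Mycobacterium tuberculosis growth, labelled Cornell in the record; the read-out is not stated. The concentration is filed as 10 mM, unlikely as a test dose, so the dose is not known. Higher means stronger inhibition (inferred from two other growth screens of the library). About 53,000 compounds were tested under these conditions; 1.7% (about 900) showed 50% or more at least once.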

- COc1ccc(NC(=O)N2CCC(c3nnc[nH]3)CC2)cc1C : 16.56%
- CN1CCN(c2cc(NC(=O)c3cnccn3)ncn2)CC1 : 23.54%
- CCC1c2ccsc2CCN1C(=O)NCc1ccccn1 (stereo not drawn) : 6.555%
- Cc1cc(=O)[nH]cc1C(=O)N1Cc2ccccc2N(C)CC1C (stereo not drawn) : -22.13%
- NC(=O)CSc1nnc2[nH]c(=O)c3c(n12)CCCC3 : -27.09%
- COc1cccc2c1OCC(CNC(=O)CSc1ccccn1)C2 (stereo not drawn) : 11.73%
- CS(=O)(=O)N1CCN(c2cc(N3CCCC3CO)ncn2)CC1 (stereo not drawn) : 0.6089%
- Cn1cc(NC(=O)Cc2ccccc2Br)cc1C(N)=O : 21.6%
- CCc1ccc(C2COCCN2C(=O)NCc2cccc(C#N)c2)o1 (stereo not drawn) : 14.15%
- Cc1cc(CCC(N)=O)cc(C2CCCN2Cc2ccccn2)n1 (stereo not drawn) : 13.58%
- O=C1c2cnc(N3CCCC3)nc2CN1C1CCS(=O)(=O)C1 (stereo not drawn) : -15.42%
- O=C1CCCN1Cc1nnn2c1CN(c1ncccn1)CCC2 : 24.21%
- O=C(O)CSc1nc(-c2ccc3c(c2)CCC3)n[nH]1 : 3.49%
- CC(C)n1cc(C(=O)N2CCC(n3cc(C(C)(C)C)nn3)CC2)cn1 : -8.765%
- CCC(C)N(Cc1ccc(C)cc1)Cc1c[nH]c(C)n1 (stereo not drawn) : 23.74%
- Cc1noc(C)c1S(=O)(=O)N1CCC(Oc2cccnn2)CC1 : 10.17%
- O=C(O)C(F)(F)F.[H][C@]12CCN(Cc3ccc(CC)o3)[C@@]1([H])CCC(=O)N2 : -20.65%
- Cc1ccc(C)c(Oc2ccc(CNC(=O)C3CCC(=O)N3)cn2)c1 (stereo not drawn) : 31.06%
- CCOc1ccccc1CN1CCc2nc3ccsc3c(=O)n2CC1.Cl : 13.04%
- [H][C@]12CC[C@](O)(c3ccccc3F)[C@@]1([H])CN(C(=O)c1cc(C3CC3)n[nH]1)C2 : 50.52%
- COC(=O)CCNC(=O)c1cc(Br)c2c(c1)OCCO2 : 20.8%
- CC(C)Cc1ncc2c(n1)CN(c1cc(NC3CC3)nc(N)n1)C2 : 9.482%
- Cn1c(-c2cc3n(n2)CCCN(CC(=O)O)C3)nc2ccccc21 : -25.37%
- CC(C)(O)CN1CCN(C(=O)COCC(F)(F)F)CC1 : 2.709%
- O=C(CCNC(=O)c1ccccc1F)NCCNc1cccnc1 : 14.68%
- CC(c1nc(C(C)(C)C)no1)N1CCN(CC(=O)N2CCOCC2)CC1 (stereo not drawn) : 7.513%
- CC(C)(CNC(=O)C1(c2cccc(Br)c2)CCOCC1)C(=O)O : 24.31%
- CC(=O)NC(Cc1c[nH]c2cc(F)ccc12)C(=O)Nc1nncs1 (stereo not drawn) : -56.89%
- CN1CCN(C2CCN(CCOc3ccc(C#N)cc3)CC2)C1=O : -7.585%
- COc1c(C2CCCN2C(=O)c2ccc3c(c2)OCO3)c(C)nn1C (stereo not drawn) : 7.084%
- Cc1ccc(C(C)NC(=O)Cc2c(C)nc3c(c2C)c(=O)[nH]n3C)o1 (stereo not drawn) : -16.27%
- COc1ccccc1OCCN(C)c1cc(C)nc(N)n1 : -1.717%
- CS(=O)(=O)CCNCc1ccc(OCc2cscn2)cc1 : 7.007%
- O=C(O)C(F)(F)F.O=C(O)C(F)(F)F.c1ccc(N2CC[C@H](OCC3CC3)[C@@H]2Cc2cccnc2)nc1 : 14.63%
- Cc1nn(C)c2cn(CC(=O)N3CCN(c4ccccc4)CC3)nc12 : 4.977%
- CNC(=O)C1(CCCc2cnccn2)CCN1CCc1ccccc1 (stereo not drawn) : 6.136%
- Cc1ccccc1NCc1nc2n(n1)CCCCC2 : 14.55%
- Cc1nc(C)n(CC2CN(CCn3cccn3)CCO2)n1 (stereo not drawn) : -4.034%
- [H][C@@]12C[C@@H](C)O[C@]1([H])CN(C(=O)c1ccccc1C)C2 : 18.11%
- COCCN(Cc1ccccn1)C(=O)Nc1cccnc1-n1cccn1 : -24.07%
- Cc1nc(CCNC(=O)CC2CCN(C(C)C)CC2)sc1Cl : -51.21%
- Cc1nc(C)n(CC2CN(Cc3ccncc3)Cc3nccn3C2)n1.O=C(O)C(F)(F)F.O=C(O)C(F)(F)F (stereo not drawn) : -0.6946%

Source: ChEMBL document CHEMBL3988442, “University of Dundee, Small-Polar-MMV Screening Library” (2021).